Measurements reported in the supplement of paper PMC12067093, “Discovery and optimisation of a covalent ligand for TRIM25 and its application to targeted protein ubiquitination” (Chemical Science, 2025).
The list shows a part of the results.

Compound: Cc1cc(ccc1-c1ccccc1)C(=O)N1CCCN(CC1)C(=O)CCl [compound 10]
Test: probe-labelled cysteine peptide fold change vs DMSO (competition) (log2 fold change); higher = less target engagement (more negative = stronger competition)
Conditions: THP-1, incubation time: 4 h
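Also: competitive profiling in live THP-1 cells: cysteine peptides tagged with an iodoacetamide desthiobiotin (IA-DTB) probe, intensity after compound treatment relative to DMSO-treated cells.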

Target | probe-labelled cysteine peptide fold change (10 µM) | probe-labelled cysteine peptide fold change (50 µM)
ITGB1_P05556_75_GCPPDDIENPR (UniProt P05556) | -0.242 | -0.289
INTS13_Q9NVM9_494_ESLTEEDVLNCQK (UniProt Q9NVM9) | 0.156 | -0.139
INPPL1_O15357_689_TNVPSWCDR (UniProt O15357) | 0.0817 | -0.00302
IPO4_Q8TEX9_400_LLPPLLQIVCK (UniProt Q8TEX9) | -0.0999 | -0.376
IPO4_Q8TEX9_574_AVGEPMRPLAEECCQLGLGLCDQVDDPDLRR (UniProt Q8TEX9) | -0.0205 | -0.66
IP6K1_Q92551_275_VCGMQVYQLDTGHYLCR (UniProt Q92551) | -0.0724 | -0.0929
ITGB2_P05107_549_YNGQVCGGPGR (UniProt P05107) | -0.00697 | -0.236
ITPK1_Q13572_391+403_LGCNAGVSPSFQQHCVASLATK (UniProt Q13572) | -0.19 | -0.599
INTS7_Q9NVH2_352_LAQECCYHNNR (UniProt Q9NVH2) | -0.185 | 0.117
ITGAM_P11215_144_GCPQEDSDIAFLIDGSGSIIPHDFR (UniProt P11215) | 0.335 | 0.732
INTS1_Q8N201_1534_SGEQCSVEPDLISK (UniProt Q8N201) | 0.025 | 0.0044
IRGQ_Q8WZA9_28_SALIAALCDK (UniProt Q8WZA9) | -0.124 | 0.0182
INTS1_Q8N201_1833_VPVPEVLLHSEGAASSSVCK (UniProt Q8N201) | -0.199 | -0.262
INTS10_Q9NVR2_387_TMSSDDEDCSAK (UniProt Q9NVR2) | -0.32 | -0.701
IPO4_Q8TEX9_726_AAHEALGQFCCALHK (UniProt Q8TEX9) | -0.0691 | -0.471
INTS12_Q96CB8_182_QMMVASGNQLVECQECHNLYHR (UniProt Q96CB8) | 0.0207 | 0.454
IRF8_Q02556_138_LGVATAGCVNEVTEMECGR (UniProt Q02556) | 0.226 | 0.082
IQGAP1_P46940_45_RQNVAYEYLCHLEEAK (UniProt P46940) | 0.214 | 0.272
IQSEC2_Q5JU85_821_DVLDCVVDEMDFSSMDLDDALRK (UniProt Q5JU85) | 0.153 | 0.0906
INSR_P06213_899_RYGDEELHLCVSR (UniProt P06213) | -0.188 | 0.0944
ITGA7_Q13683_539+546_SIDLEQPNCAGGHSVCVDLR (UniProt Q13683) | -0.529 | -0.659
INTS10_Q9NVR2_169_RFPETVVQHGVGLGEALLEAETIEEQESPVNCFR (UniProt Q9NVR2) | 0.0259 | -0.315

Target | probe-labelled cysteine peptide fold change (10 µM) | probe-labelled cysteine peptide fold change (50 µM)
ITGA5_P08648_911+916_CPEAECFR (UniProt P08648) | -0.467 | -0.188
IPO8_O15397_827_IQLPHNPGPITVQFINQWMNDTDCFLGHHDR (UniProt O15397) | 0.203 | 0.407
ITGAX_P20702_722_AHCENFNLLLPSCVEDSVTPITLR (UniProt P20702) | 0.111 | 0.368
INTS5_Q6P9B9_485_NHVGELCGETLR (UniProt Q6P9B9) | 0.0512 | 0.00468
IREB2_P48200_120_VHPACPTDLTVDHSLQIDFSK (UniProt P48200) | -0.116 | 0.117
ISG20L2_Q9H9L3_295_ADCPENATMSLK (UniProt Q9H9L3) | 0.0819 | 0.17
IPO8_O15397_749_LLEVIILQCK (UniProt O15397) | 0.146 | 0.0209
IRF2BP2_Q7Z5L9_37_MPWAMIWDFTEPVCR (UniProt Q7Z5L9) | 0.414 | -0.205
IPO4_Q8TEX9_350_LCPQLMPMLEEALR (UniProt Q8TEX9) | -0.16 | -0.384
IRF2BPL_Q9H1B7_385_DTLLTLAGCTPYEVR (UniProt Q9H1B7) | 0.193 | 0.244
IPO4_Q8TEX9_962_DNICGALAR (UniProt Q8TEX9) | 0.0138 | -0.315
INTS5_Q6P9B9_58_CGLLLLR (UniProt Q6P9B9) | 0.0348 | -0.413
INTS12_Q96CB8_209_LVWYCAR (UniProt Q96CB8) | -0.328 | -0.762
INSR_P06213_674_QAEDSELFELDYCLK (UniProt P06213) | 0.0205 | -0.147
ITM2C_Q9NQX7_96_CGVLYEDSLSSQVR (UniProt Q9NQX7) | -0.133 | -0.592
IPO11_Q9UI26_894_DCMLMSHLEEPK (UniProt Q9UI26) | -0.363 | -0.0589
ITPK1_Q13572_156_NGLTFPFICK (UniProt Q13572) | 0.14 | -0.143
ITPA_Q9BY32_57_CQEAVR (UniProt Q9BY32) | 0.0513 | 0.0275
INTS10_Q9NVR2_502_ALIQLATCHFALGEYR (UniProt Q9NVR2) | 0.0798 | 0.27
ISG15_P05161_78_CDEPLSILVR (UniProt P05161) | 0.253 | 0.838
IRF2BP1_Q8IU81_15_RQWCYLCDLPK (UniProt Q8IU81) | 0.275 | 0.0862

Three consecutive records from above, for reference:
Target | probe-labelled cysteine peptide fold change (10 µM) | probe-labelled cysteine peptide fold change (50 µM)
IRF2BP2_Q7Z5L9_37_MPWAMIWDFTEPVCR (UniProt Q7Z5L9) | 0.414 | -0.205
IPO4_Q8TEX9_350_LCPQLMPMLEEALR (UniProt Q8TEX9) | -0.16 | -0.384
IRF2BPL_Q9H1B7_385_DTLLTLAGCTPYEVR (UniProt Q9H1B7) | 0.193 | 0.244
